Assay results reported in the supplement of paper PMC10849652.
The list shows a part of the results.

Protein sequences, listed by entry. Tags and fused reporters are not part of them. Lines headed by an entry give the natural chain unless they say otherwise; changes in a name come on top.
UniProt Q8N5S9: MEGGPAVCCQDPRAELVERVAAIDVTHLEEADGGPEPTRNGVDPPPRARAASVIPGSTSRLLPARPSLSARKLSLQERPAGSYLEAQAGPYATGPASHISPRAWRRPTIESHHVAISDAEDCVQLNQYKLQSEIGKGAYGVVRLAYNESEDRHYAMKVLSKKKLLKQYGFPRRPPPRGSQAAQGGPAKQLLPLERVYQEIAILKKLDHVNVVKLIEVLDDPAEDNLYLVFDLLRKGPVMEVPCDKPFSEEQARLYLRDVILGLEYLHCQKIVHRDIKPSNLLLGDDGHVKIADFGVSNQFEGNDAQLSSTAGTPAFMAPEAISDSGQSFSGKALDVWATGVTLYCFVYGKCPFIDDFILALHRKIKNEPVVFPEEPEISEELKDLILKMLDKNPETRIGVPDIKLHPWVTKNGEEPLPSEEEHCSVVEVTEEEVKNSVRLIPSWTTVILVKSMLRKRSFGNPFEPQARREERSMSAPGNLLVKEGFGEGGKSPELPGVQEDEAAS
UniProt Q9Y6E2: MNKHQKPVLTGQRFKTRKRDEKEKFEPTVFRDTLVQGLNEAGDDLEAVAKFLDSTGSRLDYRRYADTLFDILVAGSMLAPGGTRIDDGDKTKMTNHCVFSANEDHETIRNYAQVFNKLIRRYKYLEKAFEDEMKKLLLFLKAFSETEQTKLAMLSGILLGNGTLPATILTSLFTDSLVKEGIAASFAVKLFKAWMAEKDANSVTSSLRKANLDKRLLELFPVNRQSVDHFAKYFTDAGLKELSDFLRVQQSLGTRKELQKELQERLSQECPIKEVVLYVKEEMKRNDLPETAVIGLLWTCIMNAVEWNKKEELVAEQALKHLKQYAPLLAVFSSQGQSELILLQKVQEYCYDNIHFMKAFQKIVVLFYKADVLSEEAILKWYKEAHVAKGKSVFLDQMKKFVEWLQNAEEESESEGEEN
UniProt Q8N8R5: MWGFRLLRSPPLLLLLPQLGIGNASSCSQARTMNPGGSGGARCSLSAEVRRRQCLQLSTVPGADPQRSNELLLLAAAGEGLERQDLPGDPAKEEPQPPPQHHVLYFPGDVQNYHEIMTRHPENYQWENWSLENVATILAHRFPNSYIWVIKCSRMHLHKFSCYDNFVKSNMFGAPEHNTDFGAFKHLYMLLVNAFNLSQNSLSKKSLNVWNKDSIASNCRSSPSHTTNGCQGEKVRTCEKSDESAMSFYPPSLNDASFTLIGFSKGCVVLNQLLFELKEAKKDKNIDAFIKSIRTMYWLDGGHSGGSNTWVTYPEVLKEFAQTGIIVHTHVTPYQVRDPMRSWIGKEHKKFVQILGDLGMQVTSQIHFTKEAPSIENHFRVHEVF
UniProt P0DMB2: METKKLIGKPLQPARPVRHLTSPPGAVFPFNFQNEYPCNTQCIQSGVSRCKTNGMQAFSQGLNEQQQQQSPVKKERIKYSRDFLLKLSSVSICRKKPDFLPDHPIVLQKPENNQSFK
UniProt Q9HAS0: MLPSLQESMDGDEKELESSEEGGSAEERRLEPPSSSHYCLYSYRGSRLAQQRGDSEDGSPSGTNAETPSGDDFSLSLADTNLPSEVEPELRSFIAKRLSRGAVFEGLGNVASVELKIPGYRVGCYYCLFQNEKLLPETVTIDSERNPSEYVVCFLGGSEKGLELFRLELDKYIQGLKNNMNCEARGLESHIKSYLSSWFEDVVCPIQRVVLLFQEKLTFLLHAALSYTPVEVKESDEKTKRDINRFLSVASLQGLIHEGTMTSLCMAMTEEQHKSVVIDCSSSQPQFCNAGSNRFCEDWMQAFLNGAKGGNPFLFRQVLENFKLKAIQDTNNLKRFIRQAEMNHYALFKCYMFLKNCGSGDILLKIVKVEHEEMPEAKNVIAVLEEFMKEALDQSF
UniProt Q49AR2: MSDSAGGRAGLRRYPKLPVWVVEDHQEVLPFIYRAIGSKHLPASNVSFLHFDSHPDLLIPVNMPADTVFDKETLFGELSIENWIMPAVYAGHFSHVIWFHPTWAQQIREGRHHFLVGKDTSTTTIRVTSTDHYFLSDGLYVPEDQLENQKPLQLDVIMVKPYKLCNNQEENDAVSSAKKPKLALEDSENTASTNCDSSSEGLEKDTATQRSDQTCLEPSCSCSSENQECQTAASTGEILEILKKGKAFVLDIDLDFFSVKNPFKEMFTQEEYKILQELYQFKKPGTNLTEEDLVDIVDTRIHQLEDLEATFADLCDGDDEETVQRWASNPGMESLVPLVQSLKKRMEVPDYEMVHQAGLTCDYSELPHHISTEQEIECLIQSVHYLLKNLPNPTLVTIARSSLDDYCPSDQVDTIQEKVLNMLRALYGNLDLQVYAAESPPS
UniProt Q01518, whole entry, looked up: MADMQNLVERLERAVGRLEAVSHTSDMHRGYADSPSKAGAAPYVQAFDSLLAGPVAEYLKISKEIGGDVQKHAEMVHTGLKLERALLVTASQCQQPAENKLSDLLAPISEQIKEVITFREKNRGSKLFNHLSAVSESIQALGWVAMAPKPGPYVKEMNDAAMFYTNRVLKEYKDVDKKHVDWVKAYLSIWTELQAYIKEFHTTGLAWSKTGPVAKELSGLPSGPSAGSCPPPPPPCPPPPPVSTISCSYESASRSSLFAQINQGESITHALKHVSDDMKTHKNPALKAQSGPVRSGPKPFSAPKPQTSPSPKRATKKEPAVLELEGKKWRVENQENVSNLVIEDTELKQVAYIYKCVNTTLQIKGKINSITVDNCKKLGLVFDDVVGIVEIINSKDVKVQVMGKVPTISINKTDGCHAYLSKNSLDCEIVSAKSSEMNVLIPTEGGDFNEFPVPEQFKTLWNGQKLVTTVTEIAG
UniProt Q9Y2V0: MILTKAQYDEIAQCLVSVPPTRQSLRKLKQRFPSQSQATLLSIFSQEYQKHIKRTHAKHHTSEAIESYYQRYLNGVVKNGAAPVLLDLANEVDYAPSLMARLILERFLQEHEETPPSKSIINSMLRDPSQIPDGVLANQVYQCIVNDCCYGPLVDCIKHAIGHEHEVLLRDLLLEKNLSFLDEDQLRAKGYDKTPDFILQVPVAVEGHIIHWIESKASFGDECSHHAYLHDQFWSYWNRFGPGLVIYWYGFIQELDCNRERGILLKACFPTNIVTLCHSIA
UniProt O43709: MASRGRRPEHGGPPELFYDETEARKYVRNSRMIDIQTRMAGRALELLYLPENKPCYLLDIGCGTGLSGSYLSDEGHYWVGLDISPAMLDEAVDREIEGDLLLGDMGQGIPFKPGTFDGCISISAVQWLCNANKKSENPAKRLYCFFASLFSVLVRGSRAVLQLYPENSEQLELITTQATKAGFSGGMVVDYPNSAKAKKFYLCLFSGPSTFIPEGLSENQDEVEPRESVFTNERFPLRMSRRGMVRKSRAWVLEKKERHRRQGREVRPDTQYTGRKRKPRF
UniProt Q9BRJ6: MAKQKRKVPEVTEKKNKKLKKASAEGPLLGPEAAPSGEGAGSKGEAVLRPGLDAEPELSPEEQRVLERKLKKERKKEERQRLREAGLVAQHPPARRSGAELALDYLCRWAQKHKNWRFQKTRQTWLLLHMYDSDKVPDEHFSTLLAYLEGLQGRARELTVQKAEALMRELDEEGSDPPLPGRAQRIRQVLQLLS
UniProt Q6P1S2: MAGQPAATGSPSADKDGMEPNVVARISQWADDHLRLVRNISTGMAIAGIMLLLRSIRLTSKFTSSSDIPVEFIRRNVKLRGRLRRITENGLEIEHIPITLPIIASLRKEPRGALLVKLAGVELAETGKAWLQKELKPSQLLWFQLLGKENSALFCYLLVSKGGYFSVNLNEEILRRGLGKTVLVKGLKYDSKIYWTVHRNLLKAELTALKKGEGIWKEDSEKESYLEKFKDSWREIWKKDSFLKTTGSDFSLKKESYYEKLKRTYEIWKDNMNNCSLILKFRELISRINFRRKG
UniProt P07384: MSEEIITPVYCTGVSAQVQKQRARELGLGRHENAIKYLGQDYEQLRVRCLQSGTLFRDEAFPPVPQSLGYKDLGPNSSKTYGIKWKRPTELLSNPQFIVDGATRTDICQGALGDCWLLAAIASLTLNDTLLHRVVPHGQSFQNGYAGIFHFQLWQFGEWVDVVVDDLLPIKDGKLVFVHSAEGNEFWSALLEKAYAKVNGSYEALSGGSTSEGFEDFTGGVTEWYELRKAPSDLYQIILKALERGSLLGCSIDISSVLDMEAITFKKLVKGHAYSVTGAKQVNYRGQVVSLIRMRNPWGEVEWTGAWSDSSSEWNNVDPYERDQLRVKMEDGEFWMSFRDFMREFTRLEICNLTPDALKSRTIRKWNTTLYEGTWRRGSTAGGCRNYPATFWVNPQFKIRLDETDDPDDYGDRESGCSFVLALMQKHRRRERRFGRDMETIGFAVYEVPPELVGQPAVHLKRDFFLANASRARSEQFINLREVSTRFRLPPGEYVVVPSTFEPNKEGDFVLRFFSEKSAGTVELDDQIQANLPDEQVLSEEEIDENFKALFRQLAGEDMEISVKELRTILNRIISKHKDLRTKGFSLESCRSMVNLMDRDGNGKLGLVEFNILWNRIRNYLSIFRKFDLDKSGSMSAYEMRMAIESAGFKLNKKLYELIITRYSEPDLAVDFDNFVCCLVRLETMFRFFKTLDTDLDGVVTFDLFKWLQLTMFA
UniProt P0C0L4: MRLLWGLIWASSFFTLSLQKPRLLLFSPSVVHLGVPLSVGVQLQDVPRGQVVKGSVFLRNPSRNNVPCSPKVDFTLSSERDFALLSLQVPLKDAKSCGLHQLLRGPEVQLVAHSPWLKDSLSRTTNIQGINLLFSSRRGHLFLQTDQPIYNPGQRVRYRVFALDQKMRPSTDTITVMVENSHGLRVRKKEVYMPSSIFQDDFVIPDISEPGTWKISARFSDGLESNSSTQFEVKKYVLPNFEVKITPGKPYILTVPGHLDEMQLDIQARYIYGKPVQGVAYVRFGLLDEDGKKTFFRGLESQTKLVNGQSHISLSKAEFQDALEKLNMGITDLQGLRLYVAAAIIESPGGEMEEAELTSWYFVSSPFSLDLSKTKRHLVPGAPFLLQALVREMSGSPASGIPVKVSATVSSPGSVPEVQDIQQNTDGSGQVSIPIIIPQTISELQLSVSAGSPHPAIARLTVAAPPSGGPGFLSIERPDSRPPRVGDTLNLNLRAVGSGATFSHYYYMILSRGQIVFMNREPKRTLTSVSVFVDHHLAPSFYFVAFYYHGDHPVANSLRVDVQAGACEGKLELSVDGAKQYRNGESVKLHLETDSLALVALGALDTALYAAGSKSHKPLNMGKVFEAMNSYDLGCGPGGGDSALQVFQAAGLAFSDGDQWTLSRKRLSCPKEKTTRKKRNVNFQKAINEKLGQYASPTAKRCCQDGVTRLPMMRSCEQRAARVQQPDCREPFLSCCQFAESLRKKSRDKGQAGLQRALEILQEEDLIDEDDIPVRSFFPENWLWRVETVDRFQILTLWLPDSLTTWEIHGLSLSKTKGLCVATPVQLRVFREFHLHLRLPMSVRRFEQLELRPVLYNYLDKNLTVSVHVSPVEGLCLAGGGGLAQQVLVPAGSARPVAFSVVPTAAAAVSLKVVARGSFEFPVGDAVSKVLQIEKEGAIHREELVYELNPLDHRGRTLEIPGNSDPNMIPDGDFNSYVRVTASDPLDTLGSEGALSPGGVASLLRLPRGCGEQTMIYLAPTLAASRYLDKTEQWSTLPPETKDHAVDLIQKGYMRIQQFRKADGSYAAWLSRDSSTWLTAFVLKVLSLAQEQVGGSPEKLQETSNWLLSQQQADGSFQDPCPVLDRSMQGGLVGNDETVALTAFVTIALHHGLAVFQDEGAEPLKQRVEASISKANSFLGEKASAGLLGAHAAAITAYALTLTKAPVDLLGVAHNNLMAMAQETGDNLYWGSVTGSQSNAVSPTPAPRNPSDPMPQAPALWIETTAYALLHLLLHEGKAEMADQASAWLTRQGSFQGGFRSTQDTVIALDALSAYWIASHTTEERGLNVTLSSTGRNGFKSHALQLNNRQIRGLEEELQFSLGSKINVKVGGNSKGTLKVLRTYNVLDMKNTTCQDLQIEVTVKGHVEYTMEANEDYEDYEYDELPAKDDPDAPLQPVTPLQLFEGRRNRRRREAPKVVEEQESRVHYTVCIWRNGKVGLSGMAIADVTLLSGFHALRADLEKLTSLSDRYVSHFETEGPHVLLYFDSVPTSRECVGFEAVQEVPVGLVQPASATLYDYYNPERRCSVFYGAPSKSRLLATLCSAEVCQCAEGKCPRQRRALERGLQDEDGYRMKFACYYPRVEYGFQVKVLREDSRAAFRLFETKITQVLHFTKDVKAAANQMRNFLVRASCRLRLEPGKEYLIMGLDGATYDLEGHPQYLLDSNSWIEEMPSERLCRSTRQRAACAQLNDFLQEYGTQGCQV
UniProt Q3KRA6: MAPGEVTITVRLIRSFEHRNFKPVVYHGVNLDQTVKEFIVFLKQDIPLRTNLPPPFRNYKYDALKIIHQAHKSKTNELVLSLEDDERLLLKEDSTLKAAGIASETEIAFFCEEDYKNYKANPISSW

Columns and labels:
Experiment in all cases: log2 fold change, soluble protein after heating vs DMSO (PISA); higher = thermal stabilisation; K562 lysate, 10 uM; active = over 0.2 and 3.5 SD of the protein, either way, in both replicates (recomputed)
[1] = compound: C1=CC=C(C=C1)[C@H](COC2=CC3=C(C=C2)NC(=O)N3)NC(=O)C4=CC=CN(C4=O)CC5=CC(=C(C=C5)F)F
Procedure, shortened: (§1)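 Thermal stability, expressed as log-two fold change relative to solvent controls, is given from duplicates. Crude K562 extract in PBS pH 7.4 with 1 mM MgCl2, at 1 mg/mL protein, was treated with 10 μM compound for 30 min and heated in aliquots for 3 min across 48°C-58°C. After pooling, adjustment to 0.5% NP-40 at 4°C and centrifugation at 21,000xg for 90 min, supernatant protein was measured by TMTpro 16plex LC-MS/MS with channel sums equalised.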

[2] = compound: CC1=C(SC2=C1C(=N[C@H](C3=NN=C(N32)C)CC(=O)N)C4=CC=C(C=C4)Cl)C
Procedure, shortened: as §1

[3] = compound: CC1=C2C(=CC=C1)N=C(N(C2=O)C3=CC=CC=C3C)CN4C=NC5=C(N=CN=C54)N
Procedure, shortened: as §1

[4] = compound: Cc1sc2c(c1C)C(c1ccc(Cl)cc1)=N[C@@H](CC(=O)OC(C)(C)C)c1nnc(C)n1-2
Procedure, shortened: as §1

[5] = compound: c1ccc([C@@H]2C[C@H]2NC2CCNCC2)cc1
Procedure, shortened: as §1

Measured: log2 fold change

CAMKK1 isoform 2 (UniProt Q8N5S9)
inactive: [1] 0.006 | [2] 0.03 | [3] 0.011 | [4] 0.071 | [5] -0.103

BZW2 (UniProt Q9Y6E2)
inactive: [1] -0.046 | [2] 0 | [3] 0.004 | [4] 0.024 | [5] 0.055

C2orf69 (UniProt Q8N8R5)
inactive: [1] 0.017 | [2] -0.024 | [3] 0.02 | [4] -0.002 | [5] -0.022

C8orf88 (UniProt P0DMB2)
inactive: [1] 0.033 | [2] 0.051 | [4] 0.051 | [5] -0.002

C17orf75 (UniProt Q9HAS0)
inactive: [1] -0.094 | [2] 0.002 | [3] 0.019 | [4] -0.002 | [5] -0.02

CAND2 (UniProt O75155)
inactive: [1] 0.01 | [2] 0.004 | [3] 0.018 | [4] 0.002 | [5] 0.042

C5orf22 (UniProt Q49AR2)
inactive: [1] 0.031 | [2] -0.034 | [3] 0.016 | [4] -0.02 | [5] -0.005

CAP1 isoform 2 (UniProt Q01518)
inactive: [1] 0.058 | [2] 0.044 | [4] 0.02 | [5] -0.002

C15orf41 (UniProt Q9Y2V0)
inactive: [1] 0.111 | [2] -0.007 | [3] 0.029 | [4] 0.084 | [5] -0.008

BUB1 (UniProt O43683)
inactive: [1] -0.109 | [2] 0.052 | [3] 0.011 | [4] -0.174 | [5] -0.13

BUD23 isoform 3 (UniProt O43709)
inactive: [1] 0.076 | [2] 0.03 | [3] 0.021 | [4] 0 | [5] -0.154

C7orf50 (UniProt Q9BRJ6)
inactive: [1] 0.096 | [2] -0.053 | [3] -0.011 | [4] 0.02 | [5] 0.055

C3orf33 (UniProt Q6P1S2)
inactive: [1] 0.074 | [2] 0.143 | [3] -0.386 | [4] -0.03 | [5] -0.226

CAPN1 (UniProt P07384)
inactive: [1] 0.047 | [2] 0.008 | [3] 0.014 | [4] 0.015 | [5] -0.022

CAP1 (UniProt Q01518)
inactive: [1] -0.016 | [2] 0.03 | [3] -0.024 | [4] 0.039 | [5] -0.009

C4A (UniProt P0C0L4)
inactive: [1] 0.01 | [2] -0.018 | [3] 0.068 | [4] -0.031 | [5] -0.066

C2orf76 (UniProt Q3KRA6)
inactive: [1] -0.033 | [2] -0.054 | [4] 0.027 | [5] 0.015

Reprinted from above (two entries):
BZW2 (UniProt Q9Y6E2)
inactive: [1] -0.046 | [2] 0 | [3] 0.004 | [4] 0.024 | [5] 0.055

C2orf69 (UniProt Q8N8R5)
inactive: [1] 0.017 | [2] -0.024 | [3] 0.02 | [4] -0.002 | [5] -0.022
